Laboratory results from the supplement of paper PMC5355238.
Structures can show the parent of a compound that is named as a salt. The list shows a part of the results. Single values are uncertain, as repeats are few or missing.

The molecules below were run on Reh (assay: S-phase gammaH2AX median, Z-score vs plate median (drug alone); higher = more S-phase DNA damage). Settings: MK1775 concentration 0 nM; 10 µM; 4 h.

| SMILES | S-phase gammaH2AX median (Z-score) |
| --- | --- |
| CNCC(O)c1ccc(O)cc1 (centres undefined) [(?)-Synephrine] | 0.147 |
| Nc1ncnc2c1ncn2C1OC2COP(O)(=S)O[C@@H]2[C@@H]1O (some centres undefined) [Rp-cAMPS triethylamine] | -0.0466 |
| NCC(CP(=O)(O)O)c1ccc(Cl)cc1 (centres undefined) [Phaclofen] | 0.0544 |
| N[C@@H](Cn1cc(I)c(=O)[nH]c1=O)C(=O)O [S-5-Iodowillardiine] | -0.34 |
| C[C@]12CCC(=O)C(O)=C1CC[C@@H]1[C@@H]2CC[C@]2(C)C(=O)CC[C@@H]12 [Formestane] | 0.156 |
| c1ccc(C2CC2)c(OCC2=NCCN2)c1 [Cirazoline hydrochloride] | -0.0757 |
| CN1[C@@H]2CC[C@H]1C[C@@H](OC(c1ccccc1)c1ccccc1N)C2 (some centres undefined) [Aminobenztropine] | -0.0466 |
| C[C@@]12N[C@@H](Cc3ccccc31)c1ccccc12 [(-)-MK-801 hydrogen maleate] | -0.0568 |
| C#CCN[C@H](C)Cc1ccccc1 [R-(-)-Desmethyldeprenyl hydrochloride] | -0.022 |
| CCCN(CCC)[C@@H]1CCc2cccc(O)c2C1 [R-(+)-8-Hydroxy-DPAT hydrobromide] | -0.0567 |
| CCCN1CCc2cc(O)cc3c2[C@H]1Cc1ccc(O)c(O)c1-3 [R(-)-2,10,11-Trihydroxy-N-propylnoraporphine hydrobromide] | 0.148 |
| CC1(C(=O)O)C2CCC(O2)C1(C)C(=O)O (centres undefined) [Cantharidic Acid] | 0.144 |
| CC(C)(C)NCC(O)c1ccccc1Cl (centres undefined) [Tulobuterol hydrochloride] | -0.0601 |
| Cc1nnc2ccc(-c3cccc(C(F)(F)F)c3)nn12 | -0.759 |
| CS(=N)(=O)CC[C@H](N)C(=O)O (stereo partly drawn) [L-Methionine sulfoximine] | -0.0568 |
| COc1cc([C@@H]2c3cc4c(cc3[C@H](O)[C@H]3COC(=O)[C@H]23)OCO4)cc(OC)c1OC [Podophyllotoxin] | -0.0213 |
| CC[C@H]1CN2CCc3cc(OC)c(OC)cc3[C@@H]2C[C@@H]1C[C@H]1NCCc2cc(OC)c(OC)cc21 [Emetine dihydrochloride hydrate] | 0.983 |
| NCCc1c[nH]c2ccc(O)cc12 [Serotonin hydrochloride] | -0.104 |
| Ic1ccccc1CNC1C2CCN(CC2)C1C(c1ccccc1)c1ccccc1 [L-703,606 oxalate] | -0.237 |
| CCCN(CCC)CCc1ccc(O)c(O)c1 [Dipropyldopamine hydrobromide] | -0.0378 |
| CC[C@@H]1/C=C/C=C/C[C@H](C)[C@H](O)[C@](C)(O)C(=O)[C@H](C)[C@@H](O)[C@H](C)C(=O)[C@H](C)[C@@H](O)[C@H](C)/C=C/C(=O)O[C@H]2[C@@H](C)[C@@H](CC1)O[C@@]1(CC[C@@H](C)[C@@H](C[C@H](C)O)O1)[C@@H]2C [Oligomycin A] | 0.258 |
| Clc1ccc(N2C[C@H]3CC[C@@H](C2)N3)nn1 | 0.0283 |
| NCCc1c[nH]c2ccccc12 [Tryptamine hydrochloride] | -0.0699 |
| CCNC(=O)[C@H]1O[C@@H](n2cnc3c(N)ncnc32)[C@H](O)[C@@H]1O [5'-N-Ethylcarboxamidoadenosine] | -0.0882 |
| Cc1cccc(C)c1NC1=NCCCS1 [Xylazine hydrochloride] | -0.3 |

Single entries from the entries so far:
NCCc1c[nH]c2ccc(O)cc12 [Serotonin hydrochloride] – S-phase gammaH2AX median (Z-score): -0.104
NCC(CP(=O)(O)O)c1ccc(Cl)cc1 (centres undefined) [Phaclofen] – S-phase gammaH2AX median (Z-score): 0.0544

Additional entries

| SMILES | S-phase gammaH2AX median (Z-score) |
| --- | --- |
| CCCN1CCC[C@@H](c2cccc(O)c2)C1 [S(-)-3PPP hydrochloride] | 0.0922 |
| Cc1ccc(S(=O)(=O)N[C@@H](CCCCN)C(=O)CCl)cc1 [Na-p-Tosyl-L-lysine chloromethyl ketone hydrochloride] | 0.147 |
| O=C(Oc1ccc([N+](=O)[O-])cc1)N1CCC(C(O)(c2ccc3c(c2)OCO3)c2ccc3c(c2)OCO3)CC1 | -0.0677 |
| NC(=O)CN1CCCC1=O [Piracetam] | 0.0378 |
| NCc1cc(O)no1 [Muscimol hydrobromide] | 0.0598 |
| Oc1ccc2c3c1O[C@H]1c4oc5ccccc5c4C[C@@]4(O)[C@@H](C2)N(CC2CC2)CC[C@]314 [Naltriben methanesulfonate] | 0.0142 |
| C=CCc1ccccc1OCC(O)CNC1(C)CCC(C(C)(C)NC(=O)CBr)CC1 (centres undefined) [Bromoacetyl alprenolol menthane] | -0.272 |
| Cc1c2ccncc2c(C)c2c1[nH]c1ccccc12 [Ellipticine] | 3.9 |
| CC(C)NP(=O)(NC(C)C)OP(=O)(NC(C)C)NC(C)C [Tetraisopropyl pyrophosphoramide] | -0.214 |
| CC(=O)NBr [N-Bromoacetamide] | -0.0932 |
| CCCN1CCc2cccc3c2[C@H]1Cc1ccc(O)c(O)c1-3 [R(-)-Propylnorapomorphine hydrochloride] | -0.0063 |
| CCCN(CCC)C1CCc2cccc(O)c2C1 (centres undefined) [(?)-8-Hydroxy-DPAT hydrobromide] | 0.0283 |
| CNc1ccc2oc(C[C@H]3O[C@@]4(CC[C@H]3C)O[C@H]([C@H](C)C(=O)c3ccc[nH]3)[C@H](C)C[C@H]4C)nc2c1C(=O)O [Calcimycin] | 0.107 |
| COc1ccc2c(c[n+](C)c3c4cc5c(cc4ccc23)OCO5)c1OC [Chelerythrine chloride] | 4.14 |
| c1ccc2c(c1)[I+]c1ccccc1-2 [Diphenyleneiodonium chloride] | 0.378 |
| CCn1cc(C(=O)O)c(=O)c2cc3c(cc21)OCO3 [Oxolinic acid] | -0.0473 |
| C[N+]1(C)[C@@H]2C[C@@H](OC(=O)[C@H](CO)c3ccccc3)C[C@H]1[C@@H]1O[C@@H]12 [(-)-Scopolamine methyl bromide] | -0.574 |
| NCCc1ccc(O)cc1 [4-Hydroxyphenethylamine hydrochloride] | 0.28 |
| CN(C(=O)Cc1ccc(Cl)c(Cl)c1)C(CN1CCCC1)c1cccc(OCC(=O)O)c1 (centres undefined) [ICI 204,448 hydrochloride] | 0.154 |
| NC(=O)COc1c(F)cc(SCCNS(=O)(=O)c2ccccc2)cc1F | -0.128 |
| CCCN1CCC[C@H](c2cccc(O)c2)C1 [R(+)-3PPP hydrochloride] | -0.0071 |
| C[C@H](Cc1ccc2c(c1)OC(C(=O)O)(C(=O)O)O2)NC[C@H](O)c1cccc(Cl)c1 | 0.113 |
| CCC1(c2ccc(N)cc2)CCC(=O)NC1=O (centres undefined) [(?)-p-Aminoglutethimide] | -0.00194 |
| CCC1(c2ccc(N)cc2)CCC(=O)NC1=O (centres undefined) [Aminoglutethimide (Cytadren)] | 0.11 |
